The supplement of paper PMC11006884
Only a part is listed here, and it is no random draw. This is a noisy data set.

Amino acid sequences for entries named in this document (tags omitted). A change or cut given only in a name is not applied to a line headed by its entry.
UniProt P11142, whole entry, looked up: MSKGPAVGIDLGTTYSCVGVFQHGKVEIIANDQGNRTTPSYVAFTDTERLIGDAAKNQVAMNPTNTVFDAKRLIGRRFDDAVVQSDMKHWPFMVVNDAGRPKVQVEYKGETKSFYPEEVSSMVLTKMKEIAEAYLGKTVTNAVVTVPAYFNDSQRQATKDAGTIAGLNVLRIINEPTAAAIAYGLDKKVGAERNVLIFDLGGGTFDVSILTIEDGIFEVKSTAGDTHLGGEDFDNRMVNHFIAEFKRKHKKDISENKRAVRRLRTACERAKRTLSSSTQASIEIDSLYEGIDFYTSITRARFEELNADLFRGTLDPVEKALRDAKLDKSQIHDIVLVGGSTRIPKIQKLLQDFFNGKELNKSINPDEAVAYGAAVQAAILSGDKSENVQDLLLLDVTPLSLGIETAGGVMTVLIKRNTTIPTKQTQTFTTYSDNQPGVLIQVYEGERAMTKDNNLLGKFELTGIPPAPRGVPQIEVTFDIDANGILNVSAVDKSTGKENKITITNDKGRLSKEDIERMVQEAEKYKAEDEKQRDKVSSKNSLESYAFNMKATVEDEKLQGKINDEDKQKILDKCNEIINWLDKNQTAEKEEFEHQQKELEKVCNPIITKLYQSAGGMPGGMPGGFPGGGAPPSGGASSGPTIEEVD
UniProt P13693: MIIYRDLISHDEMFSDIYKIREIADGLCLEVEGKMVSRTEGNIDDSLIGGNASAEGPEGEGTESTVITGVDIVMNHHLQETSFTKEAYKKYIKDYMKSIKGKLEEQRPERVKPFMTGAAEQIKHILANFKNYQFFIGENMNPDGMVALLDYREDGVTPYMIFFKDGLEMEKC
UniProt P11802: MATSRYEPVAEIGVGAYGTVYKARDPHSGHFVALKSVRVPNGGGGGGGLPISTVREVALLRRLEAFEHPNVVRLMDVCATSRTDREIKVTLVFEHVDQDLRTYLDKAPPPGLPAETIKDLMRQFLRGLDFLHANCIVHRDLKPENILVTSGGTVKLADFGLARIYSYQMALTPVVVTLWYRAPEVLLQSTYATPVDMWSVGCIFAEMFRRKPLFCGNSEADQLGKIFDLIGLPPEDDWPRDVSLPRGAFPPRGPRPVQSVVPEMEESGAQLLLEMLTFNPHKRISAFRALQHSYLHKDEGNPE
UniProt P17544: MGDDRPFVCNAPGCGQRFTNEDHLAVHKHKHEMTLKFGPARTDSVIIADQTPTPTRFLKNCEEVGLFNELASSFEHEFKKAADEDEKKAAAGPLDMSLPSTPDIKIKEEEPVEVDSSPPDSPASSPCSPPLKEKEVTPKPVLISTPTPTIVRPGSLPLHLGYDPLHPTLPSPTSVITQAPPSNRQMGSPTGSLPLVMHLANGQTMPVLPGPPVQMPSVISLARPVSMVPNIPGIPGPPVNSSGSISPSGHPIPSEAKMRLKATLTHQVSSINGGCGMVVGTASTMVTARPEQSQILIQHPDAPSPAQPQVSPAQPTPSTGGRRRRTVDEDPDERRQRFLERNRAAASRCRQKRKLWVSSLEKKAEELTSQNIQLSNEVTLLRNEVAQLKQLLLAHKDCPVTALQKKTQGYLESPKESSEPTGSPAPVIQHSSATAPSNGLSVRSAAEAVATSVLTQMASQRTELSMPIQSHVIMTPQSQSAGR
UniProt P09543: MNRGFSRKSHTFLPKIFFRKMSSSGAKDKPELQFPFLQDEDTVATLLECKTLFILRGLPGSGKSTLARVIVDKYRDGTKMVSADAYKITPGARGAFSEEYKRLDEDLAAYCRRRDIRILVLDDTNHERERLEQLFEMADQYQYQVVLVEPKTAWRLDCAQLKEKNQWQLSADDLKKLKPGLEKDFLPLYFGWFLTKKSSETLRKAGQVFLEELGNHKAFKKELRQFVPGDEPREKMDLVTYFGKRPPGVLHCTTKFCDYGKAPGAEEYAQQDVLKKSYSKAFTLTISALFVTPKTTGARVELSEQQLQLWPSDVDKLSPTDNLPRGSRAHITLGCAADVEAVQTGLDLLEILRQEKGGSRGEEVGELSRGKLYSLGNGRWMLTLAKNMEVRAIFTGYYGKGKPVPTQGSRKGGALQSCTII
UniProt P09874, whole entry, looked up: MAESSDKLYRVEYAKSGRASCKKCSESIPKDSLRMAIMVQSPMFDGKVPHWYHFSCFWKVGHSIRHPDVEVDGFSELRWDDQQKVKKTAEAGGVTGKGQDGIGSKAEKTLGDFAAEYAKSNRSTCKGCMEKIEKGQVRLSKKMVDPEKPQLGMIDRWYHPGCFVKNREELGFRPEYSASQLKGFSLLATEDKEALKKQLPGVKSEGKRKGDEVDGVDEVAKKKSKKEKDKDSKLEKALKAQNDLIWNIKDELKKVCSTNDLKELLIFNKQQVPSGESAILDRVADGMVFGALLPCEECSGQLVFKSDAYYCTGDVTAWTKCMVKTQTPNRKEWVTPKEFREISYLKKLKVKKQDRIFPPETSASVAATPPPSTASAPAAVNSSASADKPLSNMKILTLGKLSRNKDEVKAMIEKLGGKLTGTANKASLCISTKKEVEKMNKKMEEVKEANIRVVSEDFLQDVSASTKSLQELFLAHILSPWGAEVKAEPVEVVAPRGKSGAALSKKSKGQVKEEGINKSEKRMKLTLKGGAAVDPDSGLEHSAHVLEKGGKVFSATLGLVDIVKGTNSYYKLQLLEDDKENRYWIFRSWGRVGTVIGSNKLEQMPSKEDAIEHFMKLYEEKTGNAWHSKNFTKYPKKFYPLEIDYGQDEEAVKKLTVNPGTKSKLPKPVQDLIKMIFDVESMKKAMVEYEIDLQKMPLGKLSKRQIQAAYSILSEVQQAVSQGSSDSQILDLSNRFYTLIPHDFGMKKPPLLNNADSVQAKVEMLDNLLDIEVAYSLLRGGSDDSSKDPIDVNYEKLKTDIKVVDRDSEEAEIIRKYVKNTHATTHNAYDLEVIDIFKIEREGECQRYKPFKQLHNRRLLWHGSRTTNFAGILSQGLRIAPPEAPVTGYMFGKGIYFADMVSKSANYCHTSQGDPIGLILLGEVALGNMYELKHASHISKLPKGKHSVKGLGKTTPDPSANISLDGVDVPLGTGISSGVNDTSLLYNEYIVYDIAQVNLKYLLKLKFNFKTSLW
UniProt P09110: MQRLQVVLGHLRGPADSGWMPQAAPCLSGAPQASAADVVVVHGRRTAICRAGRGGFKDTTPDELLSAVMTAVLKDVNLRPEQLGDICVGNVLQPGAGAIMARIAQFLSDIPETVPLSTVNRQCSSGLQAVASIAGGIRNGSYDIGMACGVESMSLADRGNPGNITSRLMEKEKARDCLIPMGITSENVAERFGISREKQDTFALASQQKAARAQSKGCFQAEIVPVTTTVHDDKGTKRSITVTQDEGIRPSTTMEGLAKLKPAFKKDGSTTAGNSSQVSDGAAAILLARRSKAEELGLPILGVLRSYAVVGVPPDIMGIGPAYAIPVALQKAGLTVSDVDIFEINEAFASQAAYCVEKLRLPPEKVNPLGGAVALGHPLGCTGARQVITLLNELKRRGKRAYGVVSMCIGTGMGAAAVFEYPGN
UniProt P17812: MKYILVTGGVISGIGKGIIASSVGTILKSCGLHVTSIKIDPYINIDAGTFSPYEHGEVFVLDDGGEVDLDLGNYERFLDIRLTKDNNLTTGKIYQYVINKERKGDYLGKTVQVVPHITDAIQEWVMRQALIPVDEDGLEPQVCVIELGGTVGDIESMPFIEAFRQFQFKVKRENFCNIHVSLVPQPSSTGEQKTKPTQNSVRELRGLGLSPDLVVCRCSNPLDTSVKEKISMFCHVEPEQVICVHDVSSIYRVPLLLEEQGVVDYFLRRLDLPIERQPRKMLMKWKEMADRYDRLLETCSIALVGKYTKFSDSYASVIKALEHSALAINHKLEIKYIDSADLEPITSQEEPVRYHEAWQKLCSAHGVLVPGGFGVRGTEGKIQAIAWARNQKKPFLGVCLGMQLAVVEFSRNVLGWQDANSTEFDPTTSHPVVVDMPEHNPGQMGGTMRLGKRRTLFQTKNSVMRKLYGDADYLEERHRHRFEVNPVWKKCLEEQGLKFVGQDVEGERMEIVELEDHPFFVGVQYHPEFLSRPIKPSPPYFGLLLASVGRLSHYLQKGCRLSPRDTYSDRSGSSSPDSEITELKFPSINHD
UniProt P13995: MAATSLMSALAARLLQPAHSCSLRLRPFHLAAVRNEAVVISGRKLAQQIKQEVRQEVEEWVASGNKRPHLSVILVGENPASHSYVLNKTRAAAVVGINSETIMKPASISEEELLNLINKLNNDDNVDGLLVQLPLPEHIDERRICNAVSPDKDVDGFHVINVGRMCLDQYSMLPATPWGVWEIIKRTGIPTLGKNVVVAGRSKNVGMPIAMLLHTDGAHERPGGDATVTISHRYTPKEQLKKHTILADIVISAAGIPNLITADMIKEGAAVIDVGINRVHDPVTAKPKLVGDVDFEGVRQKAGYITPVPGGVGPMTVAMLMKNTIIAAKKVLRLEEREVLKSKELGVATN
UniProt P12955: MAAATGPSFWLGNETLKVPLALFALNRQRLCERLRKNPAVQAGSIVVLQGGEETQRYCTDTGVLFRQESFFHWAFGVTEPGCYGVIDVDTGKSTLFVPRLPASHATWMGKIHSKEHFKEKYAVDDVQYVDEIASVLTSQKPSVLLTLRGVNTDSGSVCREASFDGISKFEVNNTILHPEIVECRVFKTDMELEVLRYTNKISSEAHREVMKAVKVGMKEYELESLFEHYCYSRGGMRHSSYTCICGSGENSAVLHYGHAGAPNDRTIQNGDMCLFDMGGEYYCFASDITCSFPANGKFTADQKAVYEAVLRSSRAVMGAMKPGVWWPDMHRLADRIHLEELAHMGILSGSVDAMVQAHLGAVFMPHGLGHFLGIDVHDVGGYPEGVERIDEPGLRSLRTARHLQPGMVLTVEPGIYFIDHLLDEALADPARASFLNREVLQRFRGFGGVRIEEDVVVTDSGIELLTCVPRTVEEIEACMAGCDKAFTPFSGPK
UniProt P11586, whole entry, looked up: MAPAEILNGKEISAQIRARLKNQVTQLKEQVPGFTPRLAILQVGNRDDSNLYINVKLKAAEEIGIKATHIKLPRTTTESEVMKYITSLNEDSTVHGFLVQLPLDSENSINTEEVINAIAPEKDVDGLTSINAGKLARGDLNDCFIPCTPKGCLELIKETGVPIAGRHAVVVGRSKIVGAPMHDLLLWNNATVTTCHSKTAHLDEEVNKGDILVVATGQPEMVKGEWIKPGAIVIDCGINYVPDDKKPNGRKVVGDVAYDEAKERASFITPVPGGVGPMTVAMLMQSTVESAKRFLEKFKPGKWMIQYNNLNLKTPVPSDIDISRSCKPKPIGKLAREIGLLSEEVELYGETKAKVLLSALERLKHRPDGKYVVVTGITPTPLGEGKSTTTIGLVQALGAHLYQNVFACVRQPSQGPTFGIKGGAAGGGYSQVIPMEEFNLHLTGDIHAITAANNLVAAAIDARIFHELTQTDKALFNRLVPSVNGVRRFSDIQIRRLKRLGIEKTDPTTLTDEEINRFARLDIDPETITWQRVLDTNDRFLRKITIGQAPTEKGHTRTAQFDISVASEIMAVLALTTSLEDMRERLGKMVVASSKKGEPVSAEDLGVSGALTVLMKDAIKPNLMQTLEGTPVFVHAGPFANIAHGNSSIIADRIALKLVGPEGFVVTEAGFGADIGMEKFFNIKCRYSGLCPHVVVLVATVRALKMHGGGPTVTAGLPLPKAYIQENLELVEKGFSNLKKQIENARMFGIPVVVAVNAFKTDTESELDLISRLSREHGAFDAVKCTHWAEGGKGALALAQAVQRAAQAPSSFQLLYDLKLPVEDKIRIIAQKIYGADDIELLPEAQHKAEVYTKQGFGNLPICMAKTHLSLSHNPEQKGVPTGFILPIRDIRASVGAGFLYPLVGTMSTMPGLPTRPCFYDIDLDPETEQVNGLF
UniProt P07947, whole entry, looked up: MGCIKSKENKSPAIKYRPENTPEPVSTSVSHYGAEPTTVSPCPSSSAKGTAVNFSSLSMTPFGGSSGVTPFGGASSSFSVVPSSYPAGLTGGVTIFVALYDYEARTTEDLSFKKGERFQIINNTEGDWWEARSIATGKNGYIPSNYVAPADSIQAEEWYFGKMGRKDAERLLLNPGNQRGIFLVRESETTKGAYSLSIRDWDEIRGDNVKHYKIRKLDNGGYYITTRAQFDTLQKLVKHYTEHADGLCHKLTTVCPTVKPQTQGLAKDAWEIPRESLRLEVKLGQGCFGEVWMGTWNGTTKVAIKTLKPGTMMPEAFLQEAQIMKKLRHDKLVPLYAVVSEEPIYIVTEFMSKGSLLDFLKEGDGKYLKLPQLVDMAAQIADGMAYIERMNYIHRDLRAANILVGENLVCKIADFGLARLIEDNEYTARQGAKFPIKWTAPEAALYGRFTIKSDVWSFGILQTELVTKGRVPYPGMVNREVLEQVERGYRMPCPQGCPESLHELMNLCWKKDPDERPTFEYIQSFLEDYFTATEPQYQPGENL
UniProt P09211: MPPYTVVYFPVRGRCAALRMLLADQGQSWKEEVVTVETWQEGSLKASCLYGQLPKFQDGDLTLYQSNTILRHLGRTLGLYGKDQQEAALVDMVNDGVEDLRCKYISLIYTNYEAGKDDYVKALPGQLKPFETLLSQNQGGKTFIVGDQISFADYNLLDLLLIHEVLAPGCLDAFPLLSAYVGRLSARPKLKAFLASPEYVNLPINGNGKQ

Compound: COC(=O)/C=C/c1ccccc1 [methyl cinnamate]
Assay: log2 ratio of iodoacetamide-alkyne labeling of the cysteine site, DMSO over compound (competition); higher = stronger covalent engagement of the cysteine by the compound, active = 1 or more
Settings: 500 µM; treatment time 1 h; system: HEK293T cell lysate
Outline: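 Electrophile (500 µM) or vehicle was added to HEK293T lysate (2 mg/mL) for 1 h at ambient temperature before iodoacetamide alkyne labelling (1 h) and click coupling to sCIP-TMT reagents. After pooling, overnight trypsin digestion at 37 °C, streptavidin enrichment and acid elution, peptides were measured by Orbitrap Eclipse LC-MS/MS with FAIMS and quantified in FragPipe. Each cysteine's log2 competition ratio compares mean control-channel with mean compound-channel reporter intensity, control over compound. Data came from duplicate channels across three replicates, excluding cysteines quantified in only one replicate.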

Target: HSPA8 C603 (UniProt P11142)
- log2 ratio of iodoacetamide-alkyne labeling: inactive: 0.284

Target: TPT1 C28 (UniProt P13693)
- log2 ratio of iodoacetamide-alkyne labeling: inactive: -0.3

Target: CDK4 C78 (UniProt P11802)
- log2 ratio of iodoacetamide-alkyne labeling: inactive: 0.155

Target: HSP90AA1 C597 (UniProt P07900)
- log2 ratio of iodoacetamide-alkyne labeling: inactive: 0.00249

Target: ATF7 C61 (UniProt P17544)
- log2 ratio of iodoacetamide-alkyne labeling: inactive: -0.304

Target: ARAF C597 (UniProt P10398)
- log2 ratio of iodoacetamide-alkyne labeling: inactive: 0.214

Target: CNP C158 (UniProt P09543)
- log2 ratio of iodoacetamide-alkyne labeling: inactive: 0.155

Target: IMPDH2 C468 (UniProt P12268)
- log2 ratio of iodoacetamide-alkyne labeling: inactive: 0.0596

Target: GYS1 C564 (UniProt P13807)
- log2 ratio of iodoacetamide-alkyne labeling: inactive: 0.327

Target: ANXA6 C248 (UniProt P08133)
- log2 ratio of iodoacetamide-alkyne labeling: inactive: 0.139

Target: PARP1 C256 (UniProt P09874)
- log2 ratio of iodoacetamide-alkyne labeling: inactive: 0.252

Target: CNP C49 (UniProt P09543)
- log2 ratio of iodoacetamide-alkyne labeling: inactive: -0.154

Target: Q95604 C125 (UniProt P10321)
- log2 ratio of iodoacetamide-alkyne labeling: inactive: 0.0281

Target: RPS2 C188 (UniProt P15880)
- log2 ratio of iodoacetamide-alkyne labeling: inactive: 0.0511

Target: ACAA1 C381 (UniProt P09110)
- log2 ratio of iodoacetamide-alkyne labeling: inactive: 0.0738

Target: CBR1 C26 (UniProt P16152)
- log2 ratio of iodoacetamide-alkyne labeling: inactive: -0.261

Target: UniProt P17812_C176
- log2 ratio of iodoacetamide-alkyne labeling: inactive: -0.241

Target: MTHFD2 C145 (UniProt P13995)
- log2 ratio of iodoacetamide-alkyne labeling: inactive: 0.0129

Target: CBR1 C122 (UniProt P16152)
- log2 ratio of iodoacetamide-alkyne labeling: inactive: 0.0472

Target: RPA2 C219 (UniProt P15927)
- log2 ratio of iodoacetamide-alkyne labeling: inactive: 0.31

Target: PEPD C467 (UniProt P12955)
- log2 ratio of iodoacetamide-alkyne labeling: inactive: 0.0403

Target: ACTN1 C774 (UniProt P12814)
- log2 ratio of iodoacetamide-alkyne labeling: inactive: 0.227

Target: UniProt P08240_C424
- log2 ratio of iodoacetamide-alkyne labeling: inactive: 0.196

Target: MTHFD1 C152 (UniProt P11586)
- log2 ratio of iodoacetamide-alkyne labeling: inactive: -0.198

Target: UniProt P07947_C42
- log2 ratio of iodoacetamide-alkyne labeling: inactive: 0.427

Target: GSTP1 C102 (UniProt P09211)
- log2 ratio of iodoacetamide-alkyne labeling: inactive: 0.0823

Target: EEF2 C388 (UniProt P13639)
- log2 ratio of iodoacetamide-alkyne labeling: inactive: 0.115

Target: PARP1 C908 (UniProt P09874)
- log2 ratio of iodoacetamide-alkyne labeling: inactive: -0.249

Target: HMGB1 C23 (UniProt P09429)
- log2 ratio of iodoacetamide-alkyne labeling: inactive: 0.0879

Target: MTHFD1 C408 (UniProt P11586)
- log2 ratio of iodoacetamide-alkyne labeling: inactive: -0.111

Target: UniProt P0DN79_C244
- log2 ratio of iodoacetamide-alkyne labeling: inactive: 0.281

Target: EEF2 C693 (UniProt P13639)
- log2 ratio of iodoacetamide-alkyne labeling: inactive: 0.164
